No constants are given. Whether binding was seen depends on the method and setting. Some entries that bind do so weakly or less than the wild type.
What was measured:
[1] = target: recombinant Oryza sativa ascorbate peroxidase 2 (OsAPX2) protein (Oryza sativa) (UniProt Q9FE01); experiment: native gel or EMSA; 10% native-PAGE of purified recombinant OsAPX2 and of its SEC fractions F1-F4; both purified
[2] = target: recombinant Oryza sativa ascorbate peroxidase 2 (OsAPX2) protein (Oryza sativa) (UniProt Q9FE01); experiment: SEC; re-chromatography of the concentrated fractions F1-F4 under the original SEC conditions; data not shown; both purified
[3] = target: OsAPX2 in crude protein extracts of the salt-sensitive rice cultivar IR29 (Oryza sativa (endogenous in cv. IR29)) (UniProt Q9FE01); experiment: native gel or EMSA; 10% native-PAGE of crude total protein extracts of rice plants, western blot with polyclonal anti-OsAPX2 antibody; plants untreated, 100 mM NaCl for 3 d, and 3 d recovery
[4] = target: OsAPX2 in the salt-tolerant rice cultivar Pokkali (Oryza sativa (endogenous in cv. Pokkali)) (UniProt Q9FE01); experiment: as above

B1: recombinant Oryza sativa ascorbate peroxidase 2 (OsAPX2) protein (enzyme, UniProt Q9FE01 1-251, looked up)
chain: MGSKSYPTVSDEYLAAVGKAKRKLRGLIAEKNCAPLMLRLAWHSAGTFDVSSRTGGPFGTMKNPGEQSHAANAGLDIAVRLLDPIKDQLPILSYADFYQLAGVVAVEVTGGPEVPFHPGRQDKPEPPPEGRLPDATQGSDHLRQVFSAQMGLSDKDIVALSGGHTLGRCHKERSGFEGAWTSNPLIFDNSYFTELVSGEKEGLLQLPSDKALMADPAFRPLVEKYAADEDAFFADYAEAHLKLSELGFAEE
notes: Ascorbate peroxidase 2 (OsAPX2), cytosolic, Oryza sativa; the OsAPX2 gene cloned into pET28a; monomer of approximately 27 kDa on reducing SDS-PAGE; Haem-containing peroxidase; also called His-tagged OsAPX2; purified OsAPX2; source: E. coli BL21 (DE3), pET28a, purified (nickel-nitrilotriacetate agarose; SEC)
binding [1]: binds | binding [2]: binds

B2: OsAPX2 in crude protein extracts of the salt-sensitive rice cultivar IR29 (enzyme, UniProt Q9FE01 1-251)
chain: B1 chain
binding [3]: binds

B3: OsAPX2 in the salt-tolerant rice cultivar Pokkali (enzyme, UniProt Q9FE01 1-251)
chain: B1 chain
binding [4]: binds

Reference: article PMC6003922, “Functional switching of ascorbate peroxidase 2 of rice (OsAPX2) between peroxidase and molecular chaperone” (Scientific Reports, 2018)
